The campaign covered roughly 310,000 compounds. About 17,000 (5.5%) were called active. This list was built around the results that the source calls inconclusive (neither active nor inactive); the mix of calls is not that of the screen. Calls follow the shape of the dose curve; as a rule, active = well fitted inhibition curve with a large enough effect; inconclusive = small, poorly fitted or top-dose-only effect, or effect the other way; inactive = no such curve, though single readings can be large or run the other way. Potencies beside an inconclusive call are fits to weak or partial responses and may not hold up.
biological target: Nuclear receptor ROR-gamma (Mus musculus) (UniProt P51450); assay: qHTS for inhibitors of ROR gamma transcriptional activity; settings: Drosophila S2 Gal4-RORgamma UAS-luciferase reporter, 20 h; activity change, negative = inhibition: at 53.6 µM (top of the series); also: nearly all actives have a fitted effect of over 60% in size
Summary of the method: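 In this cell-based reporter format, copper sulfate (700 uM final) drives Gal4–ROR gamma fusion expression from a metallothionein promoter in Drosophila Schneider cells; compounds preincubated 1 hr, reporter read after 20 hr at ambient temperature.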
% is scaled to controls: 0 for no effect and ±100 for the full control effect; potency is read from the fitted curve at half-maximal effect.

Sequences of proteins named here, by UniProt entry; tags and fusion partners are left off. A change or cut given only in a name is not applied to a line headed by its entry.
UniProt P51450: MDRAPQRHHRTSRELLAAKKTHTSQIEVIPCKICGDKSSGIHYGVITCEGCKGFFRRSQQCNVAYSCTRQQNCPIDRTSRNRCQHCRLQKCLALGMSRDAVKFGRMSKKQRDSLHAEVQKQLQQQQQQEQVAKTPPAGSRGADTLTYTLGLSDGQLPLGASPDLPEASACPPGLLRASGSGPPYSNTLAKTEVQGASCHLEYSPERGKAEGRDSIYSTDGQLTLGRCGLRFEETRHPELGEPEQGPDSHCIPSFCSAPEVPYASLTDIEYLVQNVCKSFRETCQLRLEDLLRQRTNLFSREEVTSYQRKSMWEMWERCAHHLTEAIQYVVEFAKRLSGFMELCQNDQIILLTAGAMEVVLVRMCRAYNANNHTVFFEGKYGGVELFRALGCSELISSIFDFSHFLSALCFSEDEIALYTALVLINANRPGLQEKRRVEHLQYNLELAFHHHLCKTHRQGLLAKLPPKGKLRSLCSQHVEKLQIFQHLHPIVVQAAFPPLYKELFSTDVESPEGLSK

Row | Structure (SMILES) | activity change, negative = inhibition | Potency
1 | CC(C)CN(CC(C)C)C(=O)c1cc2c(=O)n3ccccc3nc2s1 | inactive: 3.42% | 
2 | Cn1c(COc2ccccc2Br)nc2ccccc21 |  | active: 12.6 µM
3 | CC(C)c1ccc(S(=O)(=O)N2CCN(C(=O)C3CCN(C(=O)c4ccc(F)cc4)CC3)CC2)cc1 |  | inconclusive: 25.1 µM [activator, single point]
4 | COc1ccc(-c2csc(NC(=O)c3ccco3)n2)cc1 |  | inconclusive: 1.12 µM [activator, full curve, poor fit]
5 | COc1ccccc1CCn1cnc2c3cc(C)ccc3n(C)c2c1=O |  | inconclusive: 20 µM [activator, single point]
6 | O=C(NCc1ccccc1)c1c(O)c2cccc3c2n(c1=O)CCC3 |  | inconclusive: 1.12 µM [inhibitor, single point]
7 | CCCCC(CC)CO (stereo unspecified) | inactive: 0.501% | 
8 | O=S(=O)(Nc1ccc(OC(F)F)cc1)c1ccc(-c2ccon2)s1 | inactive: 44.5% | 
9 | CC(=O)Cc1nsc(NC(=O)c2ccc(-c3cc(Cl)ccc3Cl)o2)n1 |  | inconclusive: 10 µM [activator, single point]
10 | O=[N+]([O-])c1ccccc1SN(Cc1ccccc1)c1ccccn1 | inactive: -19.6% | 
11 | CC(C(=O)NCCCN1CCOCC1)n1cccc1C(=O)c1ccccc1 (stereo unspecified) |  | inconclusive: 0.398 µM [inhibitor, single point]
12 | COC(=O)c1ccccc1NC(=O)CCCn1nc(C)c2c(C)n(-c3ccccc3)nc2c1=O | inactive: 14.3% | 
13 | C/C(=N\NC(=O)c1ccncc1)c1cccs1 |  | inconclusive: 35.5 µM [inhibitor, single point]
14 | CC1CCN(C(=S)Nc2ccc(F)cc2)CC1 |  | inconclusive: 15.8 µM [inhibitor, single point]
15 | CCCC(=O)Nc1ccc(NC(=O)c2ccccc2)nc1 |  | inconclusive: 10 µM [inhibitor, partial curve]
16 | O=S(Cc1ccccc1)CC(O)(c1ccc(Cl)cc1)c1ccc(Cl)cc1 (stereo unspecified) |  | inconclusive: 17.8 µM [activator, partial curve]
17 | CCNc1nc(NCC)nc(N/N=C/c2ccc(OC)cc2)n1 |  | active: 11.2 µM
18 | CCN1CCN(C(=O)c2ccc3c(=O)n(C4CCCC4)c(=S)[nH]c3c2)CC1 |  | active: 7.08 µM
19 | O=C(CCNC(=O)C1CCN(S(=O)(=O)c2ccc(F)cc2)CC1)Nc1ccccc1 | inactive: 4.04% | 
20 | Cc1cnc(NC(=O)C2CCCC2)s1 |  | inconclusive: 15.8 µM [inhibitor, single point]
21 | CC(C(N)=O)N1C(=O)C2C3C=CC(C3)C2C1=O (stereo unspecified) |  | inconclusive: 0.005 µM [inhibitor, partial curve, poor fit]
22 | CC1CCN(CCCNC(=O)c2cc3c(=O)n(C)c4ccccc4c3n2C)CC1 | inactive: -5.06% | 
23 | O=C(C1=C[C@@H](c2ccc(Br)cc2)C[C@@H](OCc2ccc(CO)cc2)O1)N1CCN(Cc2ccc3c(c2)OCO3)CC1 |  | inconclusive: 14.1 µM [activator, single point]
24 | Oc1ccccc1/C=N/Nc1nccnc1Cl |  | active: 12.6 µM
25 | O=C(Cc1ccccc1F)Nc1nc(-c2ccc(F)cc2)cs1 |  | inconclusive: 0.708 µM [activator, partial curve]
26 | Cc1ccc(NS(=O)(=O)c2cc(C(=O)NCc3cccnc3)ccc2C)cc1 |  | inconclusive: 25.1 µM [activator, single point]

Row | Structure (SMILES) | activity change, negative = inhibition | Potency
27 | O=C(CC(Nc1ccccc1Cl)C(=O)OCC(=O)c1cccs1)c1ccccc1 (stereo unspecified) | inactive: -7.96% | 
28 | O=C(c1cccnc1)c1ncc(C(F)(F)F)cc1Cl | inactive: 9.38% | 
29 | Cn1ncc2cc(NC(=S)NC(=O)c3ccccc3)ccc21 |  | active: 10 µM
30 | COCCn1c(C)cc(C(=O)CSc2ccc3ccccc3n2)c1C |  | inconclusive: 5.62 µM [activator, partial curve]
31 | Cc1c(C=O)c2cc(OCc3ccccc3)ccc2n1C |  | inconclusive: 3.16 µM [activator, full curve, poor fit]
32 | O=C1/C(=C\c2ccc(O)c(O)c2)N=C2CCCCCN12 |  | inconclusive: 10 µM [inhibitor, partial curve, poor fit]
33 | Cc1cccc(NC(=O)c2cc([N+](=O)[O-])ccc2Cl)c1O | inactive: 2.58% | 
34 | O=C(Nc1nnc(-c2ccncc2)o1)C1CCCCC1 |  | active: 10 µM
35 | COc1cccc(Nc2nc(-c3sc(NC(=O)c4ccccc4)nc3C)cs2)c1 | inactive: 25% | 
36 | CC(/C=C/c1ccc2c(c1)OCO2)=N/NC(=O)c1ccc(C)nc1 |  | active: 7.94 µM
37 | COC(=O)c1c(-c2ccc(F)cc2)csc1NC(=O)C1CCCO1 (stereo unspecified) |  | inconclusive: 12.6 µM [activator, single point]
38 | COc1c(Br)cc([N+](=O)[O-])c(OC)c1C(=O)NC(=O)Nc1c(Cl)cccc1Cl | inactive: -1.18% | 
39 | COc1cc(C(=S)N2CCOCC2)cc(OC)c1OC |  | inactive
40 | CNC(=O)NC(=O)Cn1cnc2sc(-c3ccccc3)cc2c1=O | inactive: 15.9% | 
41 | CC1(C)CC2/C(CO)=C/C=C/[C@](C)(O)CC[C@]21O (stereo partly specified) | inactive: -13.1% | 
42 | Cc1ccc(S(=O)(=O)n2c(C)nc3cc(C)ccc32)cc1 | inactive: -7.31% | 
43 | COC(=O)c1ccc2nc(-c3ccc4c(c3)OCO4)cn2c1 |  | inconclusive: 2 µM [inhibitor, full curve]
44 | COc1ccc(S(=O)(=O)N2c3ccccc3OCC2C)cc1 (stereo unspecified) |  | inconclusive: 25.1 µM [inhibitor, single point]
45 | COCc1nnc(NC(=O)c2cc3ccccc3o2)s1 | inactive: -4.5% | 
46 | CCC1CCCCN1C(=O)c1cc(COc2ccc3ncccc3c2)on1 (stereo unspecified) |  | inconclusive: 5.01 µM [inhibitor, full curve, poor fit]
47 | O=[N+]([O-])c1ccc(N2CCCC2)cc1NC1CC1 | inactive: 36.3% | 
48 | Cc1ccc(-n2c(C)nc3ncnc(-c4ccccc4)c32)cc1 |  | inconclusive: 3.55 µM [activator, single point]
49 | COc1ccc(OC)c(C2C3=C(N=c4s/c(=C\c5cccc(O)c5)c(=O)n42)c2ccccc2CC3)c1 (stereo unspecified) |  | active: 12.6 µM
50 | COc1ccc(/C=N/NC(=O)c2ccc(N(C)S(=O)(=O)c3ccccc3)cc2)cc1 |  | inconclusive: 17.8 µM [inhibitor, single point]
51 | CN(C)c1cccc(Oc2nc3c(c(=O)n(C)c(=O)n3C)n2C)c1 |  | inconclusive: 7.08 µM [activator, partial curve]

Some of the entries above in another layout.
Row,Structure (SMILES),"activity change, negative = inhibition",Potency
35,COc1cccc(Nc2nc(-c3sc(NC(=O)c4ccccc4)nc3C)cs2)c1,inactive: 25%,
36,CC(/C=C/c1ccc2c(c1)OCO2)=N/NC(=O)c1ccc(C)nc1,,active: 7.94 µM
37,COC(=O)c1c(-c2ccc(F)cc2)csc1NC(=O)C1CCCO1 (stereo unspecified),,"inconclusive: 12.6 µM [activator, single point]"
38,COc1c(Br)cc([N+](=O)[O-])c(OC)c1C(=O)NC(=O)Nc1c(Cl)cccc1Cl,inactive: -1.18%,
39,COc1cc(C(=S)N2CCOCC2)cc(OC)c1OC,,inactive
40,CNC(=O)NC(=O)Cn1cnc2sc(-c3ccccc3)cc2c1=O,inactive: 15.9%,
41,CC1(C)CC2/C(CO)=C/C=C/[C@](C)(O)CC[C@]21O (stereo partly specified),inactive: -13.1%,
42,Cc1ccc(S(=O)(=O)n2c(C)nc3cc(C)ccc32)cc1,inactive: -7.31%,
43,COC(=O)c1ccc2nc(-c3ccc4c(c3)OCO4)cn2c1,,"inconclusive: 2 µM [inhibitor, full curve]"
44,COc1ccc(S(=O)(=O)N2c3ccccc3OCC2C)cc1 (stereo unspecified),,"inconclusive: 25.1 µM [inhibitor, single point]"
45,COCc1nnc(NC(=O)c2cc3ccccc3o2)s1,inactive: -4.5%,
